For this assay, the target named is T1, Flag–astrin S110A/T111A (UniProt Q96R06).
T1 sequence: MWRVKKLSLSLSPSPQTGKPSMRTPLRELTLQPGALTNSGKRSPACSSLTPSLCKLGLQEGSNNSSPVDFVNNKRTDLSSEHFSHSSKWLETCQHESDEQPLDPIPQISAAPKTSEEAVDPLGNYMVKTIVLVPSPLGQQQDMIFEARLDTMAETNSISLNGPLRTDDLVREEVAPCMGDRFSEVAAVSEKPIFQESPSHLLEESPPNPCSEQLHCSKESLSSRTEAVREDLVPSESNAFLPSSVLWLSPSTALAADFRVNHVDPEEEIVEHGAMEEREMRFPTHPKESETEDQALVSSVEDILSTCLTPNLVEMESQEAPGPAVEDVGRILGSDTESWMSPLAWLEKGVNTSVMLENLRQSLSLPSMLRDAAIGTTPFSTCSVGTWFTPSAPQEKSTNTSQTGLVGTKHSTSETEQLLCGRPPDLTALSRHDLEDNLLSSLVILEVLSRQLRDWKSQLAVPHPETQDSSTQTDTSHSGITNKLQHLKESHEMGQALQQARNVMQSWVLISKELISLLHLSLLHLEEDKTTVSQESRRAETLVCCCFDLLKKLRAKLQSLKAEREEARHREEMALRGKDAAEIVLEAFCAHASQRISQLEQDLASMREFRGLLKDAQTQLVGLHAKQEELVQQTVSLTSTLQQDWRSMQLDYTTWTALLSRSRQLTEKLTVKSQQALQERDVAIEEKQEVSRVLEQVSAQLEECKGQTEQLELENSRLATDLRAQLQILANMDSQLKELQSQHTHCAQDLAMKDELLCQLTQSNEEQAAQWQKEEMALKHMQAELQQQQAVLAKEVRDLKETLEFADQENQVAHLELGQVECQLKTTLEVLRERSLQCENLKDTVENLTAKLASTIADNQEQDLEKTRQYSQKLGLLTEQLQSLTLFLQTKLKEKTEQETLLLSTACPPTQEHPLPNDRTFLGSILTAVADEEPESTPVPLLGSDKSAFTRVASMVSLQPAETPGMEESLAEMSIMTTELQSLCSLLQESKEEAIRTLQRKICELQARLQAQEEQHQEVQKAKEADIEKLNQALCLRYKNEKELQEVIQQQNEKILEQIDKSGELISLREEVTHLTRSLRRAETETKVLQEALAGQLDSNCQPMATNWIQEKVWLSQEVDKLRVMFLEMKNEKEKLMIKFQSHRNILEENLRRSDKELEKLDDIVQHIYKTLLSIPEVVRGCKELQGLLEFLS
Nature of the assay: co-IP; Flag-astrin constructs transiently transfected into HEK293T cells, arrested with 10 µM STLC for 14 h, mitotic shake-off, lysis in 50 mM Tris-HCl pH 8.0, 150 mM NaCl, 1% IGEPAL; FLAG-agarose beads; blot for Plk1 (Fig. 1F).

Chains of the proteins cited; added tags and fusions are not shown.
UniProt P53350: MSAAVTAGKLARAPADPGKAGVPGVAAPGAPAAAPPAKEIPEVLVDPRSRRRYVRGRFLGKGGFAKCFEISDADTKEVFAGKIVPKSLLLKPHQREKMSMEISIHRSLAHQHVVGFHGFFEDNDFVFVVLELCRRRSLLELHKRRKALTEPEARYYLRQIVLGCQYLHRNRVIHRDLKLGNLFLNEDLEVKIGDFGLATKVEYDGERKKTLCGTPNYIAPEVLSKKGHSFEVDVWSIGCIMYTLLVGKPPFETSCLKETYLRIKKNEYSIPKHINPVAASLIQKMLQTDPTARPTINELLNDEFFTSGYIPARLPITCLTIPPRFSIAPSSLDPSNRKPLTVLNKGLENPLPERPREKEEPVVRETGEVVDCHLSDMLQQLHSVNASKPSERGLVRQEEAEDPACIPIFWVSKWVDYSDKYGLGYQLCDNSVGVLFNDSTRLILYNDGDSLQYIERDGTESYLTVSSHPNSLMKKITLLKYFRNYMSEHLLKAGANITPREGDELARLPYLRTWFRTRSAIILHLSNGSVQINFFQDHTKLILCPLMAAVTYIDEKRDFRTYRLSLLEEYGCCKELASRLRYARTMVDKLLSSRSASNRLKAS

No constants are given. Whether binding was seen depends on the method and setting. In cells and extracts the contact can be indirect. Where a sequence is shown, tags or fusion partners need not be part of it.

On to “Polo-like kinase 1 (from UniProt P53350 1-603) (enzyme)”, for which the binding result is recorded as “no binding”.

The values are drawn from publication PMC7803464.
